One data set has as its target PDGFRα (Homo sapiens (Human), UniProt P16234). The data set can be described thus: PDGFRα kinase enzyme assay (Promega PDGFRα Kinase Enzyme System, ADP-Glo). In kind it is biochemical. To be noted: read-out: IC50 Values on PDGFRα Kinase Inhibition, IC50; 11-point dose response, 10,000 nM to 0.169 nM; 150 uM ATP; BLQ = below limit of quantitation. Background: ADP-Glo turns the ADP formed in a reaction into a luminescent signal.

Sequences of proteins named here, by UniProt entry; tags and fusion partners are left off. Residues count along the entry.
UniProt P16234, 24-1089 limits assumed: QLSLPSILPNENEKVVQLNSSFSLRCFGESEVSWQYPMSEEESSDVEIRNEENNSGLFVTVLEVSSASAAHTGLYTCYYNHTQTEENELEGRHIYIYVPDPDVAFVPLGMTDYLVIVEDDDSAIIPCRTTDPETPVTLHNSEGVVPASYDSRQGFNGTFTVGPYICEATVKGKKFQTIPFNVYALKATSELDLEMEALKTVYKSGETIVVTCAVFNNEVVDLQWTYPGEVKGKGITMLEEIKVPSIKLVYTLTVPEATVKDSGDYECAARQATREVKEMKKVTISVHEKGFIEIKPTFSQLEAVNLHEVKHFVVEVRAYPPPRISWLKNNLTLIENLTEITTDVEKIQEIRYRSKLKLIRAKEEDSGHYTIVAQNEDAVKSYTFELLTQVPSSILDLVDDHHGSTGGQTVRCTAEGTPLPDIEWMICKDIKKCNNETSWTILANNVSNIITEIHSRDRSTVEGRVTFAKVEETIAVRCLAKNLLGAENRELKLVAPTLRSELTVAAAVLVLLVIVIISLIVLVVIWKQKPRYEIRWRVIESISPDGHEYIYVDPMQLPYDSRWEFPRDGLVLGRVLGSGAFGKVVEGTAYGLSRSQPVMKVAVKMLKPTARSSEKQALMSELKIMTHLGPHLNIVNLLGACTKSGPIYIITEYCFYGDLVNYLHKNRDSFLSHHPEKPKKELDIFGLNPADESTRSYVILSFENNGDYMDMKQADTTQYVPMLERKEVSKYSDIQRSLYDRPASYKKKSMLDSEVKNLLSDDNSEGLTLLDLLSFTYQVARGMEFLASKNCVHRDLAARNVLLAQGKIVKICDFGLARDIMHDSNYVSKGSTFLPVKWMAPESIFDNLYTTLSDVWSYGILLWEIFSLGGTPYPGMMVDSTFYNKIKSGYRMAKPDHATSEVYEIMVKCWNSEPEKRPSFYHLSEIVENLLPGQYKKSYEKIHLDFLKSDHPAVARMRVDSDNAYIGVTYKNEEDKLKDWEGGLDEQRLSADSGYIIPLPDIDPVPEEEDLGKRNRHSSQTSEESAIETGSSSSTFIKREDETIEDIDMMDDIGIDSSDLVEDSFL

Data set [1] deals with Oligodendrocyte progenitor cells (OPCs). Briefly: In vitro OPC differentiation assay, GPR17 expression (immunocytochemistry). Format: cell-based, rat.

Structures are written as SMILES. Structures were worked out from names or drawings and are uncertain.

Usually IC50 stands for the concentration that gives 50% inhibition. As usually defined, the fold induction is the ratio of treated to control signal. On to `Cc1cn(-c2cc3ncc(N4CCN(C(=O)OC(C)(C)C)CC4)n3cn2)cn1`, for which, on PDGFRα, the IC50 is greater than 10 µM. Besides, in data set [1], the fold induction was 0.69.

Turning to `Cc1cn(-c2cc3ncc(N4CCCN(C(=O)OC(C)(C)C)CC4)n3cn2)cn1`, the IC50 on PDGFRα was greater than 10 µM. Also, the GPR17 Fold Induction (Over Vehicle; 3 μM) in data set [1] (3 μM (10× concentration, final 0.3 μM), 72 hours, fold change over vehicle) is 0.88.

Source of the values: US20250129067A1 (Progentos Therapeutics, Inc., priority 2021, published 2025).
